{"source": "patent US11193159B2", "about": "“High throughput optical assay of human mixed cell population spheroids” (StemoniX Inc., priority 2017, dated 2021)", "tested_on": "mixed population neuron spheroids (astrocytes and neurons)", "experiment": "FLIPR calcium oscillation assay on 3D mixed population neuron spheroids", "type": "cell-based, human", "conditions": "50 micro molar concentration, FIG. 5", "note": "At least one compound was matched to its structure with a doubt left."}
{"smiles": "CN1CCc2cc3c(cc2[C@H]1[C@@H]1OC(=O)c2c1ccc1c2OCO1)OCO3", "note": "[Bicuculline]", "values": [{"measurement": "effect on spontaneous calcium oscillations (calcium uptake behavior) of spheroids vs. controls", "value": "irregular and erratic calcium uptake behavior"}]}
